These are yes or no findings as the source states them, for the method shown. In cells and extracts the contact can be indirect. These calls come from enrichment with a bait or labelling near it, and not all partners need be listed. A no says only that the protein was not detected with the bait.
How the values were obtained:
Sirtuin 5 (Sirt5) = Sirtuin 5 (Sirt5) (UniProt Q9NXA8); experiment: affinity purification with mass spectrometry; His-tagged bait (p66CH2CB as a mixture of dimeric and tetrameric state, or the Sirt5 control) saturating Talon resin; 3 mg mitochondrial lysate, 10 mM imidazole, 1 h at room temperature; eluate digested with trypsin and analysed by MudPIT; only the target purified
[1] = target: T1, p66CH2CB WT (N-terminal domains CH2 and CB of p66Shc, residues 1-150) (UniProt P29353); experiment: as above
T1 sequence: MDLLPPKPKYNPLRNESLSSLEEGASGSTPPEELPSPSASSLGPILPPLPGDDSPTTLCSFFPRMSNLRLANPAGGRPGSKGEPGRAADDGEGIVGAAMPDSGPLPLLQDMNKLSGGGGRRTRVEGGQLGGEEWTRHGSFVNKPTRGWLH

Amino acid sequences for entries named in this document (tags omitted). Residues count along the entry.
UniProt Q9NXA8, residues 37-310: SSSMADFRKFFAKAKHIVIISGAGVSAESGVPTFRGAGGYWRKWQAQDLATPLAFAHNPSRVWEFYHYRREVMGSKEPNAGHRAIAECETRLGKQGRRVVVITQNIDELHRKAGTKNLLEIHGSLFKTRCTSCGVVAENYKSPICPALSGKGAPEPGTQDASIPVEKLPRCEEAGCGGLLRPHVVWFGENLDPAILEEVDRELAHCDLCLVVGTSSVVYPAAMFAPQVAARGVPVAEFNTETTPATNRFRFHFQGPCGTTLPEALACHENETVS
UniProt P10860, residues 54-558: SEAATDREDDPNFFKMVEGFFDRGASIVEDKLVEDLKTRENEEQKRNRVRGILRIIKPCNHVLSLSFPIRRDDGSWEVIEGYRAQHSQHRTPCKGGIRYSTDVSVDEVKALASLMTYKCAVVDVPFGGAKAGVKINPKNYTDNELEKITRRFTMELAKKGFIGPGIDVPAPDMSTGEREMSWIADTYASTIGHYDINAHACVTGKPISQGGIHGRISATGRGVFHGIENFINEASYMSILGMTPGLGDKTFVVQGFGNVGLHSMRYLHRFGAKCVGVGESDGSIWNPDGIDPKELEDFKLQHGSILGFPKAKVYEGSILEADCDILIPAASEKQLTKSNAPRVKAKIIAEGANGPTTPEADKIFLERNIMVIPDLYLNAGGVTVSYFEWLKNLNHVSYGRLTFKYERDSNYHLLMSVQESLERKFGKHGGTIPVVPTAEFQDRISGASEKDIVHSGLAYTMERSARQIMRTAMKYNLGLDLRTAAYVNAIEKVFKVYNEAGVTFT

“glutamate-dehydrogenase 1, endogenous in mitochondrial lysate (from UniProt P10860 54-558)” was tested, and the binding (Sirtuin 5 (Sirt5)) was “no binding” and the binding [1] was “no binding”.

Source: paper PMC2806001
